What all share (conditions): remark: other sources report otherwise
Assay [1] concerns the target T1, PE15 (Rv1386) with N-terminal His tag (Mycobacterium tuberculosis H37Rv), P9WIH1.
T1 chain: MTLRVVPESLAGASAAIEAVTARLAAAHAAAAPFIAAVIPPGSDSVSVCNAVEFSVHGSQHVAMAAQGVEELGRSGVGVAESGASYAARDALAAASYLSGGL
Nature of the assay: native gel or EMSA. (In general: A gel shift assay detects complexes by their altered migration in electrophoresis.)

Assay [2] concerns the target T1, PE15 (Rv1386) with N-terminal His tag …. The experiment in a line: pull-down.
Assay [3] has as its target T2, PPE20 (Rv1387) with C-terminal Strep II tag (Mycobacterium tuberculosis H37Rv), P9WI23.
T2 chain: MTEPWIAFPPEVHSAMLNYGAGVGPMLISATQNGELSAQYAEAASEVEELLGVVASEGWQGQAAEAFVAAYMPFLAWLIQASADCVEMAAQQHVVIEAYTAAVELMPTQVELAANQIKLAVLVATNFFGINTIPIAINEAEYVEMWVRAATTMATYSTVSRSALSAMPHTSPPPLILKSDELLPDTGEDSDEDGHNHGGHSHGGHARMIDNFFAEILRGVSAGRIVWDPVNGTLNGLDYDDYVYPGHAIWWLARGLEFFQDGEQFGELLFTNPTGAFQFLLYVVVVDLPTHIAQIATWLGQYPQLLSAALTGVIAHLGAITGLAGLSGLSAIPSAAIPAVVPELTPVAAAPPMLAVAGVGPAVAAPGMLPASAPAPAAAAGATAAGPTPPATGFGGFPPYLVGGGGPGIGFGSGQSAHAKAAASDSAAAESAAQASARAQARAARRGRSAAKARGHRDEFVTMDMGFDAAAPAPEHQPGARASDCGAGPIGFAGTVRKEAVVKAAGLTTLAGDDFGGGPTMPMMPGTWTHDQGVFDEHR
The experiment in a line: pull-down.

No constants are given. Whether binding was seen depends on the method and setting. For part of these data: Binding seen in cells or lysates may run through a third protein. Some results given as binding are weak or reduced against the parent protein; the word gives no strength. Sequences can lack the tags named with a protein.

B1: PPE20 (Rv1387) with C-terminal Strep II tag, P9WI23 1-539 (protein)
chain: T2 chain
Consider B1, for which the binding entry in assay [1] and in assay [2] was “binds” throughout.

B2: PE15 (Rv1386) with N-terminal His tag, P9WIH1 1-102 (protein)
chain: T1 chain
Regarding B2, the binding entry in assay [3] is listed as “binds”.

The record behind these values is doi:10.1101/2022.05.30.494056.
